Measured values reported in US20180221369A1, “COMPOSITIONS AND METHODS FOR TREATING FIBROSING DISORDERS AND CANCER” (Cedars-Sinai Medical Center, priority 2014, published 2018).
For at least one compound, name, drawing or mass did not settle the structure.

System: cerulein-induced pancreatic fibrosis
Assay: Cerulein-induced pancreatic fibrosis (chronic pancreatitis) mouse model, Picro-Sirius Red quantitation
Type: in vivo, C57BL/6J mice
Conditions: mice treated for 6 weeks with both cerulein and INNO-406 versus cerulein alone
Description: There is no optimal animal model available for human pancreatitis-induced fibrosis, to date. However, a most commonly used experimental model of chronic pancreatitis (CP) partially recapitulating human disease is repeated injection of cerulein into mice (Ulmasov, B. et al. Am J Pathol. 183, 692-708 (2013)). C57BL/6 is the most frequently used mouse strain for this type of biomedical research. In our current experiments, C57BL/6J mice (2 months old male and female) were divided into 3 groups (each group consisted of 15 animals) as follows: (1) untreated mice (saline only); (2) mice treated with cerulein for 6 weeks (50 μg/kg hourly, 6 hourly injections in one day constituted one treatment, twice-weekly); (3) mice treated with cerulein (as above) plus 120 mg INNO-406/kg per day for 6 weeks (oral gavage). When 120 mg INNO-406/kg per day is administrated orally to the mice, the concentration of INNO-406 in the soft tissues is estimated to be 0.24 μM according to pharmacokinetic studies described previously (Kimura, S. et al. Blood., 106, 3948-3954 (2005); Yokota, A, et al. Blood, 109, 306-314 (2007)). […] Picro sirius red quantitation were performed using Leica Biosystem Tissue IA Optimizer web-based program that measures positive stained intensity per area at 10× magnification. […]

For `Cc1ccc(NC(=O)c2ccc(CN3CC[C@H](N(C)C)C3)c(C(F)(F)F)c2)cc1Nc1nccc(-c2cncnc2)n1` [INNO-406, Bafetinib], which extent of fibrosis is on record?
The extent of fibrosis was “significantly reduced”.
